Some of the results follow.

The assay addresses T1, OsSMF1 (Oryza sativa, UniProt Q6ZLB0 1-436).
T1 sequence: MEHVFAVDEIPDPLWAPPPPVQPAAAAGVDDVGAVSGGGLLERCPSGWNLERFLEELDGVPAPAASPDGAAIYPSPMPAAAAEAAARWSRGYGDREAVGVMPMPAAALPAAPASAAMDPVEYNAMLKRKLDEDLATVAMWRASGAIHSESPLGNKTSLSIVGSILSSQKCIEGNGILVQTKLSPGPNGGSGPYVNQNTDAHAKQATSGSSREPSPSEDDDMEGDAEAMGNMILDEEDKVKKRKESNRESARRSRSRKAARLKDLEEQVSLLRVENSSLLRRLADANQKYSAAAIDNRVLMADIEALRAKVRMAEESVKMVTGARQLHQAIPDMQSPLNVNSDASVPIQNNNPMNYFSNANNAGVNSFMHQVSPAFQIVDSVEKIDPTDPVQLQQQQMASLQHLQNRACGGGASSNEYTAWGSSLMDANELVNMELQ
The assay can be described thus: protein-binding microarray (RPBM); PBS, 2% BSA, 51.3 ng/ul salmon testes DNA, 50 uM zinc acetate, 200 nM TF, 25 C, 1 h; high values mean tight binding. As to conditions: protein: recombinant; tags: N-terminal polyhistidine and DsRed monomer fusion (pET32a); chain copies: 2; label: CyDye5-dUTP incorporated in the synthesized complementary strand; 3' TTTTT single-stranded linker to array surface; dsDNA, one strand shown. The essentials: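 An Axon 4000B scanner gave the binding signal as per-feature fluorescence intensity in arbitrary units. This followed washing of a custom Agilent array that had been incubated for 1 h at 25 °C with 200 nM protein in PBS, 2% BSA, salmon testes DNA and 50 µM zinc acetate. The proteins were transcription factors fused at the N-terminus to polyhistidine and DsRed, expressed in E. coli BL21-CodonPlus and purified on Ni–NTA.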
Regarding “TCGCCGGCGCCAAGTTCGTCGTCACCTCCAATCTCATGCTCGGAGTCACCTAGTGCAG”, the binding signal was 4960 fluorescence intensity (a.u.).

With “ATGTCAAGACAACAACAGTTGTAAATGTGATCTGGACATACGGAGTCACCTAGTGCAG”, the binding signal is 3540 fluorescence intensity (a.u.).

In the case of “TTTACATGTGTAGATCTAATGATGTGTTAATGCTAGTATACGGAGTCACCTAGTGCAG”, the binding signal is 4500 fluorescence intensity (a.u.).

Take “TTTATTACGTGAGTAAAATTTTAACTACGTGTACATATAGCGGAGTCACCTAGTGCAG”: the binding signal was 4180 fluorescence intensity (a.u.).

Turning to “TATCTGTCCTCTTCGTCATATATAACTCTCTTGACGAACTCGGAGTCACCTAGTGCAG”, the binding signal is 3210 fluorescence intensity (a.u.).

“CCATCCAGTTGTCAAGTTTGACTCGGATTGATGACTGGACCGGAGTCACCTAGTGCAG”: the binding signal was 9540 fluorescence intensity (a.u.).

Turning to “CTACCCGATTGCAAGCTCATCGATGTCGATTTCATTCATCCGGAGTCACCTAGTGCAG”, the binding signal is 3490 fluorescence intensity (a.u.).

Take “CAGTCCACATAACCTGAACCCAGCGTCAATCCGCAAGCAACGGAGTCACCTAGTGCAG”: the binding signal is 40200 fluorescence intensity (a.u.).

With “AACCCTTTCCCGCTGCTTCTGTTCGCCGCCGCCGTGCTCCCGGAGTCACCTAGTGCAG”, the binding signal was 17300 fluorescence intensity (a.u.).

Turning to “ATTCCATCCGATATGCTTCCTCATCACCTACACGCCCAAACGGAGTCACCTAGTGCAG”, the binding signal was 3240 fluorescence intensity (a.u.).

As to “ATGCTTAAGTTAGTTTGTTTGGTGTGACGCTGGCAGCTGTCGGAGTCACCTAGTGCAG”, the binding signal is 5410 fluorescence intensity (a.u.).

On to “GTAATTACAGCTCATGATTTTCTCTCTCTCTCTCTCTCTACGGAGTCACCTAGTGCAG”, for which the binding signal was 19500 fluorescence intensity (a.u.).

For “TGACGACGGCCACCTCTGTTCGATCCACCGCTGACTGGTCCGGAGTCACCTAGTGCAG”, the binding signal was 4530 fluorescence intensity (a.u.).

Take “GAGATGGTGGTGGCGGCGGGGCACGGCGGGCGGCGGAGGCCGGAGTCACCTAGTGCAG”: the binding signal was 4390 fluorescence intensity (a.u.).

Regarding “CAAGAACACAACGAAACAAAGCCACTCCTGACGTCAGCGTCGGAGTCACCTAGTGCAG”, the binding signal is 19400 fluorescence intensity (a.u.).

Turning to “TTAATGATTTTATTTGAATGGATCAGGGTCCAATTTGCTGCGGAGTCACCTAGTGCAG”, the binding signal was 55800 fluorescence intensity (a.u.).

“CAAACTCTATGACTTTGCATACTATAGTAATGCAATTAAACGGAGTCACCTAGTGCAG”: the binding signal is 24600 fluorescence intensity (a.u.).

Take “CAAGGGATTTGTGGAGGGTGGCATCGCGTCCATCGTCGCTCGGAGTCACCTAGTGCAG”: the binding signal was 3690 fluorescence intensity (a.u.).

Turning to “CTCACGGTTTAGTTTTAACCACCGACTCTCAAATCTCAATCGGAGTCACCTAGTGCAG”, the binding signal is 28200 fluorescence intensity (a.u.).

On to “AGGTGGTGTAGCGCGCGCGGGTGGGGTTGGGTTACGTGGTCGGAGTCACCTAGTGCAG”, for which the binding signal is 4280 fluorescence intensity (a.u.).

As to “CATGGATGGAGTGGTAGCTACCGCCAGTTGTGTAGTCATGCGGAGTCACCTAGTGCAG”, the binding signal was 3450 fluorescence intensity (a.u.).

For “GCTCCATGTGGAGTCACTTAGCGCAGTGTAGCTAGCCATCCGGAGTCACCTAGTGCAG”, the binding signal was 3560 fluorescence intensity (a.u.).

In the case of “TCATCGATCGGGATGAAGAGCCACGTGGCTTTCCTCTCGCCGGAGTCACCTAGTGCAG”, the binding signal was 24200 fluorescence intensity (a.u.).

As to “CTAGGCAATTTTAAGTGTCTCTACGCTATAAAACTCGTGACGGAGTCACCTAGTGCAG”, the binding signal is 8560 fluorescence intensity (a.u.).

For the sequence “GTGGCAGGCGACGTGGTGGTAGCTCCCCGCCAGCCGCTGCCGGAGTCACCTAGTGCAG”, the binding signal was 3180 fluorescence intensity (a.u.).

With “CTACCCTATAGTTAAACAAATAGTTTCACTCATTCTTTCACGGAGTCACCTAGTGCAG”, the binding signal is 26800 fluorescence intensity (a.u.).

For the sequence “AGCGGCAGCAGCTTCCATGCTTGGCGATTCGATGCCATGTCGGAGTCACCTAGTGCAG”, the binding signal is 3540 fluorescence intensity (a.u.).

Take “CTGCTGTAATATCTAAGACTATGCAGCTGTCACTGACATGCGGAGTCACCTAGTGCAG”: the binding signal is 3740 fluorescence intensity (a.u.).

With “GTGTATTCATGCAGAAATTGATCCAAACCAAAACCAAAAGCGGAGTCACCTAGTGCAG”, the binding signal is 30400 fluorescence intensity (a.u.).

Consider “ATGAGGTCGACGAAGCCAGTGAGATCCCACGGCTTGGAGTCGGAGTCACCTAGTGCAG”, for which the binding signal was 36700 fluorescence intensity (a.u.).

With “AGTTGGTTGGACTTGGAGGTGTCAGCTCAGCTTGGCGCCGCGGAGTCACCTAGTGCAG”, the binding signal was 3720 fluorescence intensity (a.u.).

Regarding “GGGTGTTATGAGTTGTGTTTGCTGTAGCTTGTCAGCTGTTCGGAGTCACCTAGTGCAG”, the binding signal is 3320 fluorescence intensity (a.u.).

As to “CAGAAGGGGAAGCGGCGTTGCGTGGCTGCTGCTTCTTCTTCGGAGTCACCTAGTGCAG”, the binding signal was 3680 fluorescence intensity (a.u.).

Consider “GGCTCGCCGCACACGTGGCGCCACACCATTGGCTCCCGTGCGGAGTCACCTAGTGCAG”, for which the binding signal is 22300 fluorescence intensity (a.u.).

For “GAGTTGAGGGACACGTCATATCTGGTATTGTTGTTCAGGGCGGAGTCACCTAGTGCAG”, the binding signal is 20000 fluorescence intensity (a.u.).

Turning to “AGGCGAAATCGTGTGTAGGTGGCGCGTCATCGAGGGCGAGCGGAGTCACCTAGTGCAG”, the binding signal was 4420 fluorescence intensity (a.u.).

Take “TTCGATTTGTACCGACATGTTTCCGTCCATATTATTCTGTCGGAGTCACCTAGTGCAG”: the binding signal is 3420 fluorescence intensity (a.u.).

Consider “CCATGCCCACTCAGCATGTCTCGTGGACACGCTGTCAAGTCGGAGTCACCTAGTGCAG”, for which the binding signal was 7600 fluorescence intensity (a.u.).

As to “CCGTCCCGACTCTCGTGGTGTCATCCGCTCGTGCGGCGCACGGAGTCACCTAGTGCAG”, the binding signal was 3940 fluorescence intensity (a.u.).

Take “GCGACTGGCTTGCCGCCGCCGTGTCGTCCCTCCATGCCGCCGGAGTCACCTAGTGCAG”: the binding signal is 3450 fluorescence intensity (a.u.).

On to “GTGAGTTCCATAAAATGATGTCGTACAAGTGATTTTATCCCGGAGTCACCTAGTGCAG”, for which the binding signal is 3160 fluorescence intensity (a.u.).

As to “ACGATTATGTTATATCATAATTCATACAGCAGAAACTTTCCGGAGTCACCTAGTGCAG”, the binding signal was 4020 fluorescence intensity (a.u.).

These data come from article PMC7819943, “Rice protein-binding microarrays: a tool to detect cis-acting elements near promoter regions in rice”.
